Results from the supplement of paper PMC7752906.
Where a name gives a salt, the structure may show the parent alone. The list shows a part of the results. This data set is noisy: repeats of one test often differ as much as different tests do.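 Wells held roughly 40 S. mansoni schistosomula, imaged in bright field over time against wells given 0.1% DMSO. The paper defines hits as drugs with a Mahalanobis distance of at least 2.47, three standard deviations above the DMSO control mean. Degeneracy is the proportion of worms classified as opaque.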

system: Schistosoma mansoni schistosomula; assay: degeneracy (percent of somules classified as degenerate/opaque); higher = more parasite degeneration/death; extreme values may be limits of the assay; conditions: 10 µM; 72 h

Structure (SMILES)	degeneracy
CCOC(=O)NNc1nncc2ccccc12 [Todralazine Hydrochloride]	66.7%
Nc1ccc(S(=O)(=O)Nc2ccccn2)cc1 [Sulfapyridine]	6.06%
CO[C@H]1C[C@H](O[C@H]2[C@H](C)[C@@H](O[C@@H]3O[C@H](C)C[C@H](N(C)C)[C@H]3O)[C@@H](C)C[C@@]3(CO3)C(=O)[C@H](C)[C@@H](O)[C@@H](C)[C@@H](C)OC(=O)[C@@H]2C)O[C@@H](C)[C@@H]1O [Oleandomycin Phosphate]	7.69%
O=c1[nH]c(=O)c2ccccc2o1 [Carsalam]	0%
Nc1ccn([C@@H]2O[C@H](CO)[C@@H](O)[C@@H]2O)c(=O)n1 [Cytarabine]	14.3%
O=c1ccc2ccccc2o1 [Coumarin]	5.41%
O=c1[nH]cnc2c1ncn2[C@@H]1O[C@H](CO)[C@@H](O)[C@H]1O [Inosine]	11.5%
CCOc1ccccc1OC(c1ccccc1)C1CNCCO1 (stereo not drawn) [Reboxetine Mesylate]	12.5%
COc1cc([C@@H]2c3cc4c(cc3[C@@H](O[C@@H]3O[C@@H]5CO[C@@H](c6cccs6)O[C@H]5[C@H](O)[C@H]3O)[C@H]3COC(=O)[C@H]23)OCO4)cc(OC)c1O [Teniposide]	4%
CN(Cc1cnc2nc(N)nc(N)c2n1)c1ccc(C(=O)N[C@@H](CCC(=O)O)C(=O)O)cc1 [Methotrexate]	4.26%
N[C@@H](Cc1ccc(O)cc1)C(=O)O [Tyrosine]	6.45%
CCN(CC)CCNc1ccc(CO)c2sc3ccccc3c(=O)c12 [hycanthone]	100%
CN(C)c1ccc(O)c2c1C[C@H]1C[C@H]3[C@H](N(C)C)C(O)=C(C(N)=O)C(=O)[C@@]3(O)C(O)=C1C2=O [Minocycline Hydrochloride]	4%
Cc1ccsc1/C=C/C1=NCCCN1C [Morantel Citrate]	0%
CCCCCCCCCCCCCCCCOP(=O)([O-])OCC[N+](C)(C)C [Miltefosine]	100%
C[N+](C)(C)CCOC(=O)CCC(=O)OCC[N+](C)(C)C [Succinylcholine Chloride]	2.78%
C[C@]12CC[C@@H]3c4ccc(OS(=O)(=O)O)cc4CC[C@H]3[C@@H]1CCC2=O [Estropipate]	6.25%
Cc1ccc(S(=O)(=O)NC(=O)NN2CCCCCC2)cc1 [Tolazamide]	7.69%
CC(C)(C)CC(C)(C)c1ccc(O)c(Cc2ccc(Cl)cc2Cl)c1 [clofoctol]	100%
OC(CCCN1CCCCC1)(c1ccccc1)c1ccccc1 [Diphenidol]	13.6%
CCN(CC)CCOC(=O)C(c1ccccc1)c1ccccc1 [Adiphenine Hydrochloride]	16%
CCOC(=O)c1ccc(N)cc1 [Benzocaine]	9.68%
CCCCC1(COC(=O)CCC(=O)O)C(=O)N(c2ccccc2)N(c2ccccc2)C1=O [Suxibuzone]	0%
COc1cc(NC(C)CCCN)c2ncccc2c1 (stereo not drawn) [primaquine]	91.7%
CSc1ccc2c(c1)N(CCC1CCCCN1C)c1ccccc1S2 (stereo not drawn) [thioridazine]	100%
CC1=C(/C=C/C(C)=C/C=C/C(C)=C\C(=O)O)C(C)(C)CCC1 [Isotretinoin]	6.06%

Structure (SMILES)	degeneracy
CC/C(=C(/CC)c1ccc(O)cc1)c1ccc(O)cc1 [Diethylstilbestrol]	8%
C=CCOC(Cn1ccnc1)c1ccc(Cl)cc1Cl (stereo not drawn) [Enilconazole]	3.12%
CC(=O)OCC(=O)[C@H]1CC[C@H]2[C@@H]3CCC4=CC(=O)CC[C@]4(C)[C@H]3CC[C@]12C [Desoxycorticosterone Acetate]	4.17%
CC(CN(C)C)CN1c2ccccc2Sc2ccccc21 (stereo not drawn) [Trimeprazine Tartrate]	100%
CCN(CC)CCOCCOC(=O)C(CC)(CC)c1ccccc1 [Oxelaidin Citrate]	17.4%
CC(=O)OCC(=O)[C@@]1(OC(C)=O)[C@@H](C)C[C@H]2[C@@H]3C[C@H](F)C4=CC(=O)C=C[C@]4(C)[C@@]3(F)[C@@H](O)C[C@@]21C [Diflorasone Diacetate]	0%
C[C@]1(Cn2ccnn2)[C@H](C(=O)O)N2C(=O)C[C@H]2S1(=O)=O [Tazobactam]	13.3%
C=CCSCC1Nc2cc(Cl)c(S(N)(=O)=O)cc2S(=O)(=O)N1 (stereo not drawn) [Althiazide]	3.23%
NC(=O)NS(=O)(=O)c1ccc(N)cc1 [Sulfacarbamide]	0%
CC(=O)N(CC(O)CN(C(C)=O)c1c(I)c(C(=O)NCC(O)CO)c(I)c(C(=O)NCC(O)CO)c1I)c1c(I)c(C(=O)NCC(O)CO)c(I)c(C(=O)NCC(O)CO)c1I (stereo not drawn) [Iodixanol]	7.14%
c1ccc(CN(CC2=NCCN2)c2ccccc2)cc1 [Antazoline]	22.7%
CN(C)CC/C=C1/c2ccccc2COc2ccc(CC(=O)O)cc21 [Olopatadine Hcl]	8.7%
COc1cc(/C=C/C(=O)N2CCCCCCC2)cc(OC)c1OC [Cinoctramide]	3.45%
OCc1ccccc1O [Salicyl Alcohol]	7.5%
COc1c(N2CCNC(C)C2)c(F)cc2c(=O)c(C(=O)O)cn(C3CC3)c12 (stereo not drawn) [Gatifloxacin]	2.27%
O=C(c1ccccc1)c1ccc2n1CCC2C(=O)O (stereo not drawn) [Ketorolac Tromethamine]	5.56%
CN(C)CC(c1ccc(O)cc1)C1(O)CCCCC1 (stereo not drawn) [Desvenlafaxine Succinate]	2.7%
NC(=O)[C@@H]1CCCN1C(=O)[C@H](Cc1c[nH]cn1)NC(=O)[C@@H]1CCC(=O)N1 [Protirelin]	14.3%
CC(=O)Oc1cccc(C)c1 [Meta-cresyl Acetate]	22.9%
CC(C)(O)c1ccccc1CC[C@@H](SCC1(CC(=O)O)CC1)c1cccc(/C=C/c2ccc3ccc(Cl)cc3n2)c1 [montelukast]	0%
CC(C)(O)c1ccccc1CC[C@@H](SCC1(CC(=O)O)CC1)c1cccc(/C=C/c2ccc3ccc(Cl)cc3n2)c1 [Montelukast Sodium]	7.89%
CCN[C@@H]1C[C@H](N)[C@@H](O[C@H]2OC(CN)=CC[C@H]2N)[C@H](O)[C@H]1O[C@H]1OC[C@](C)(O)[C@H](NC)[C@H]1O [Netilmicin Sulfate]	9.43%
Cc1cc(N)c2ccccc2[n+]1CCCCCCCCCC[n+]1c(C)cc(N)c2ccccc21 [Dequalinium Chloride]	14.7%
COc1ccccc1OCC(O)COC(N)=O (stereo not drawn) [Methocarbamol]	4.76%
CCNC(=O)/C=C/c1cccc(Br)c1 [Cinromide]	6.9%
COc1ccc(Cl)cc1C(=O)NCCc1ccc(S(=O)(=O)NC(=O)NC2CCCCC2)cc1 [Glibenclamide, Glyburide]	0%

A second format for part of the listing above:
Structure (SMILES) | degeneracy
COc1ccccc1OCC(O)COC(N)=O (stereo not drawn) [Methocarbamol] | 4.76%
CCNC(=O)/C=C/c1cccc(Br)c1 [Cinromide] | 6.9%
COc1ccc(Cl)cc1C(=O)NCCc1ccc(S(=O)(=O)NC(=O)NC2CCCCC2)cc1 [Glibenclamide, Glyburide] | 0%

Later entries:

Structure (SMILES)	degeneracy
Nc1nc(=O)n([C@@H]2CS[C@H](CO)O2)cc1F [Emtricitabine]	5.26%
CCCCCCNC(=O)n1cc(F)c(=O)[nH]c1=O [Carmofur]	45.7%
CCCOc1ccccc1-c1nc2[nH]nnc2c(=O)[nH]1 [Zaprinast]	3.45%
CN1CCN2c3ncccc3Cc3ccccc3C2C1 (stereo not drawn) [Mirtazapine]	15.2%
COc1cc(NS(=O)(=O)c2ccc(N)cc2)ncn1 [Sulfamonomethoxine]	0%
Cc1cc(C)nc(NS(=O)(=O)c2ccc(N)cc2)n1 [Sulfamethazine]	11.1%
CN(C(=O)CN(CCO)CC(=O)N(C)C(C)(C)Cc1ccccc1)C(C)(C)Cc1ccccc1 [oxethazaine]	100%
O=C(O)c1ccc[n+]([O-])c1 [Oxiniacic Acid]	12.9%
NC[C@H]1O[C@H](O[C@H]2[C@H](O)[C@@H](O[C@H]3O[C@H](CO)[C@@H](O)[C@H](N)[C@H]3O)[C@H](N)C[C@@H]2N)[C@H](N)C[C@@H]1O [Tobramycin]	5.41%
CCOC(=O)Nc1nc2ccccc2[nH]1 [Lobendazole]	0%
CCOC(=O)/C=C(C)/C=C/C=C(C)/C=C/c1c(C)cc(OC)c(C)c1C [Etretinate]	11.1%
O=C(CCBr)N1CCN(C(=O)CCBr)CC1 [Pipobroman]	2.7%
CCCCC1C(=O)N(c2ccccc2)N(c2ccc(O)cc2)C1=O (stereo not drawn) [Oxyphenbutazone]	24.3%
CC(=O)Nc1ccc(OC(=O)c2ccccc2O)cc1 [Acetaminosalol]	8.82%
COc1cc2nc(N3CCN(C(=O)C4COc5ccccc5O4)CC3)nc(N)c2cc1OC (stereo not drawn) [Doxazosin]	14.3%
O=P(O)(O)C(O)(Cn1ccnc1)P(=O)(O)O [Zoledronic Acid]	14.8%
CC(C)(CO)[C@@H](O)C(=O)NCCC(=O)O [Pantothenic Acid]	11.1%
Cc1cc(C(C)(C)C)cc(C)c1CC1=NCCN1 [Xylometazoline]	23.1%
CCN(CCCCOC(=O)c1ccc(OC)c(OC)c1)C(C)Cc1ccc(OC)cc1 (stereo not drawn) [Mebeverine]	9.09%
CCN(CC)CCOCCOC(=O)C1(c2ccccc2)CCCC1 [Carbetapentane Citrate]	7.41%
C[C@@H]1C[C@H]2[C@@H]3CCC4=CC(=O)C=C[C@]4(C)[C@@]3(F)[C@@H](O)C[C@]2(C)[C@H]1C(=O)CO [Desoximetasone]	3.03%
CC#CCn1c(N2CCC[C@@H](N)C2)nc2c1c(=O)n(Cc1nc(C)c3ccccc3n1)c(=O)n2C [Linagliptin]	2.63%
NC[C@H](O)c1ccc(O)c(O)c1 [Norepinephrine]	0%
CCCCCCOc1ccccc1C(N)=O [Exalamide]	100%
O=C(O)C1=C(CSc2nnnn2CS(=O)(=O)O)CS[C@@H]2[C@H](NC(=O)[C@H](O)c3ccccc3)C(=O)N12 [Cefonicid Sodium]	0%
CNCC(O)c1ccc(O)c(O)c1 (stereo not drawn) [Racepinephrine]	2.63%
